From patent US11028068B2, “Somatostatin modulators and uses thereof” (Crinetics Pharmaceuticals, Inc., priority 2017, dated 2021)
Some of these results come from one statement about several compounds together. For at least one compound, name, drawing or mass did not settle the structure.

Protein sequences, listed by entry. Tags and fused reporters are not part of them. Lines headed by an entry give the natural chain unless they say otherwise; changes in a name come on top.
UniProt P30874: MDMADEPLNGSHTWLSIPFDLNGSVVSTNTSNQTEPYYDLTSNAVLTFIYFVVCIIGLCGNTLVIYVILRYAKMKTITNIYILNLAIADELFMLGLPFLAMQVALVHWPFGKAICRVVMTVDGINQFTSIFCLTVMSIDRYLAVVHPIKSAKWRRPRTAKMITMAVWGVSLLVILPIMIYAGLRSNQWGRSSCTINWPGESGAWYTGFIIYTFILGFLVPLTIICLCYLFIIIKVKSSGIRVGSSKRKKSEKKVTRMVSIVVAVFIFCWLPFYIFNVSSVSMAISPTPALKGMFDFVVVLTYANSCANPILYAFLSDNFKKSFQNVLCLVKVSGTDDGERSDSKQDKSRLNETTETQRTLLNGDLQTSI

Target: T1, human somatostatin receptor subtype 2 (Homo sapiens, UniProt P30874)
T1 construct: expressed in transfected cells; host or cells: CHO (Chinese hamster ovary) cells, cultured under G-418 selection
Test: cAMP assay (inhibition of cAMP activities via sst2 receptor)
Format: cell-based
Conditions: CHO cells expressing the human somatostatin receptor subtype 2, forskolin
Description: General overview: All five SSTR subtypes are Gi coupled G-protein coupled receptors (GPCRs) that lead to decreases in intracellular cyclic AMP (cAMP) when activated by an agonist. Therefore, measurement of intracellular cAMP levels can be used to assess whether compounds of the invention are agonists of SSTR subtypes (John Kelly, Troy Stevens, W. Joseph Thompson, and Roland Seifert, Current Protocols in Pharmacology, 2005,2.2.1-2.2). One example of an intracellular cAMP assay is described below.
One day prior to the assay, 40,000 Chinese hamster ovary (CHO) cells expressing the human somatostatin receptor subtype 2 are plated in each well of a 96-well tissue culture plate in DM-MEM growth media (Gibco) with the following additives: 10% fetal bovine serum (Gibco), 100 U/mL penicillin (Gibco), 100 ug/mL streptomycin (Gibco), 10 mM HEPES (Gibco), 1.2 mM sodium hydroxide, 0.5 mg/mL G-418 (Gibco)). The cells are cultured overnight at 37° C., 5% CO2 and 95% humidity. […] The intracellular cAMP concentrations are then measured using a commercially available detection kit (for example, the cAMP HTRF kit, Cisbio). The measured intracellular cAMP concentrations are plotted vs. the concentration of the compounds of the invention and the EC50 of the compounds are calculated using standard methods.

Row | Compound | EC50 [nM]
1 | Cc1cc(F)cc(-c2cnc3ccc(-c4cc(F)cc(C(N)=O)c4)nc3c2C(=O)N(C)C[C@@H]2CCCN2)c1 [Compound 2-24, 6-(3-carbamoyl-5-fluorophenyl)-3-(3-fluoro-5-methylphenyl)-N-methyl-N -[(2S)-pyrrolidin-2-ylmethyl]-1,5-naphthyridine-4-carboxamide] | < 100
2 | methyl 3-{3-[6-(3-hydroxyphenyl)-4-{methyl[(2S)-pyrrolidin-2-ylmethyl]carbamoyl}-1,5-naphthyridin-3-yl]phenyl}propanoate [Compound 2-23] | < 100
